Assay results

The results are deposited in PubChem (AID504749; NCATS, 2011).

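Malaria parasite (P. falciparum) lines kept in red blood cells; parasite DNA is measured by SYBR Green fluorescence after lysis, 72 h after compound addition. Each compound was titrated across a series from about 0.000037 to 29 µM. The number is the fitted AC50, the concentration giving a half-maximal change in signal; a lower value means higher potency, whether the curve shows a decrease or an increase. Calls follow the curve class and fit quality: every row here is inconclusive, covering signal-raising curves and weak, poorly fitted, partial or highest-dose-only inhibition curves.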

Values are in µM. Every entry below has the call inconclusive. Only part of the assay is shown, chiefly results filed as inconclusive. A potency from a partial, single-point or poor curve is only a rough figure. Some entries filed as inconclusive have a full curve.

| SMILES | tested on / at | fitted potency (µM) | curve as filed |
|---|---|---|---|
| `CCOC(=O)C1=C(C)NC(C)=C(C(=O)OC)C1c1cccc([N+](=O)[O-])c1` (centres undefined) | CP191 | 14.13 | inhibitor, partial curve, poor fit |
| `CCOC(=O)C1=C(C)NC(C)=C(C(=O)OC)C1c1cccc([N+](=O)[O-])c1` (centres undefined) | JCK | 10 | inhibitor, single point |
| `CCOC(=O)C1=C(C)NC(C)=C(C(=O)OC)C1c1cccc([N+](=O)[O-])c1` (centres undefined) | CP305 | 16.94 | inhibitor, partial curve, poor fit |
| `CCOC(=O)C1=C(C)NC(C)=C(C(=O)OC)C1c1cccc([N+](=O)[O-])c1` (centres undefined) | TAB109 | 6.31 | inhibitor, partial curve |
| `CCOC(=O)C1=C(C)NC(C)=C(C(=O)OC)C1c1cccc([N+](=O)[O-])c1` (centres undefined) | PAD | 12.59 | inhibitor, partial curve |
| `CCOC(=O)C1=C(C)NC(C)=C(C(=O)OC)C1c1cccc([N+](=O)[O-])c1` (centres undefined) | P93_24 | 3.162 | inhibitor, full curve |
| `CCOC(=O)C1=C(C)NC(C)=C(C(=O)OC)C1c1cccc([N+](=O)[O-])c1` (centres undefined) | DIV17 | 0.4775 | inhibitor, full curve, poor fit |
| `CCOC(=O)C1=C(C)NC(C)=C(C(=O)OC)C1c1cccc([N+](=O)[O-])c1` (centres undefined) | CP185 | 11.22 | inhibitor, single point |
| `CCOC(=O)C1=C(C)NC(C)=C(C(=O)OC)C1c1cccc([N+](=O)[O-])c1` (centres undefined) | CP250 | 7.943 | inhibitor, partial curve, poor fit |
| `CCOC(=O)C1=C(C)NC(C)=C(C(=O)OC)C1c1cccc([N+](=O)[O-])c1` (centres undefined) | 3D7 | 11.22 | inhibitor, partial curve |
| `CCOC(=O)C1=C(C)NC(C)=C(C(=O)OC)C1c1cccc([N+](=O)[O-])c1` (centres undefined) | DIV14 | 15.1 | inhibitor, single point |
| `CCOC(=O)C1=C(C)NC(C)=C(C(=O)OC)C1c1cccc([N+](=O)[O-])c1` (centres undefined) | CP217 | 12.59 | inhibitor, single point |
| `CCOC(=O)C1=C(C)NC(C)=C(C(=O)OC)C1c1cccc([N+](=O)[O-])c1` (centres undefined) | CP203 | 15.1 | inhibitor, single point |
| `CCOC(=O)C1=C(C)NC(C)=C(C(=O)OC)C1c1cccc([N+](=O)[O-])c1` (centres undefined) | PC26 | 16.94 | inhibitor, single point |
| `CCOC(=O)C1=C(C)NC(C)=C(C(=O)OC)C1c1cccc([N+](=O)[O-])c1` (centres undefined) | Dd2 | 10 | inhibitor, partial curve |
| `CCOC(=O)C1=C(C)NC(C)=C(C(=O)OC)C1c1cccc([N+](=O)[O-])c1` (centres undefined) | DIV30 | 15.1 | inhibitor, partial curve, poor fit |
| `CCOC(=O)C1=C(C)NC(C)=C(C(=O)OC)C1c1cccc([N+](=O)[O-])c1` (centres undefined) | PC15 | 17.78 | inhibitor, single point |
| `CCOC(=O)C1=C(C)NC(C)=C(C(=O)OC)C1c1cccc([N+](=O)[O-])c1` (centres undefined) | CP201 | 12 | inhibitor, partial curve |
| `CCOC(=O)C1=C(C)NC(C)=C(C(=O)OC)C1c1cccc([N+](=O)[O-])c1` (centres undefined) | CP262 | 19.01 | inhibitor, partial curve, poor fit |
| `CCOC(=O)C1=C(C)NC(C)=C(C(=O)OC)C1c1cccc([N+](=O)[O-])c1` (centres undefined) | CP286 | 17.78 | inhibitor, single point |
| `CCOC(=O)C1=C(C)NC(C)=C(C(=O)OC)C1c1cccc([N+](=O)[O-])c1` (centres undefined) | CP297 | 19.01 | inhibitor, single point |
| `CCOC(=O)C1=C(C)NC(C)=C(C(=O)OC)C1c1cccc([N+](=O)[O-])c1` (centres undefined) | W2 | 8.492 | inhibitor, partial curve, poor fit |
| `CCOC(=O)C1=C(C)NC(C)=C(C(=O)OC)C1c1cccc([N+](=O)[O-])c1` (centres undefined) | ATS189 | 10 | inhibitor, partial curve |
| `CCOC(=O)C1=C(C)NC(C)=C(C(=O)OC)C1c1cccc([N+](=O)[O-])c1` (centres undefined) | TAB113 | 10 | inhibitor, partial curve |
| `CCOC(=O)C1=C(C)NC(C)=C(C(=O)OC)C1c1cccc([N+](=O)[O-])c1` (centres undefined) | CP325 | 19.01 | inhibitor, single point |
| `CCOC(=O)C1=C(C)NC(C)=C(C(=O)OC)C1c1cccc([N+](=O)[O-])c1` (centres undefined) | CP265 | 10 | inhibitor, partial curve |
| `CCOC(=O)C1=C(C)NC(C)=C(C(=O)OC)C1c1cccc([N+](=O)[O-])c1` (centres undefined) | PC49 | 10 | inhibitor, single point |
| `CCOC(=O)C1=C(C)NC(C)=C(C(=O)OC)C1c1cccc([N+](=O)[O-])c1` (centres undefined) | ATS95 | 11.22 | inhibitor, partial curve |
| `CCOC(=O)C1=C(C)NC(C)=C(C(=O)OC)C1c1cccc([N+](=O)[O-])c1` (centres undefined) | DFO2036 | 12.59 | inhibitor, partial curve |
| `CCOC(=O)C1=C(C)NC(C)=C(C(=O)OC)C1c1cccc([N+](=O)[O-])c1` (centres undefined) | CP215 | 12 | inhibitor, single point |
| `CCOC(=O)C1=C(C)NC(C)=C(C(=O)OC)C1c1cccc([N+](=O)[O-])c1` (centres undefined) | GB4 | 7.569 | inhibitor, partial curve |
| `CCOC(=O)C1=C(C)NC(C)=C(C(=O)OC)C1c1cccc([N+](=O)[O-])c1` (centres undefined) | CP268 | 13.46 | inhibitor, single point |
| `CCOC(=O)C1=C(C)NC(C)=C(C(=O)OC)C1c1cccc([N+](=O)[O-])c1` (centres undefined) | CP335 | 19.01 | inhibitor, single point |
| `CCOC(=O)C1=C(C)NC(C)=C(C(=O)OC)C1c1cccc([N+](=O)[O-])c1` (centres undefined) | CP269 | 16.94 | inhibitor, single point |
| `CCOC(=O)C1=C(C)NC(C)=C(C(=O)OC)C1c1cccc([N+](=O)[O-])c1` (centres undefined) | CP291 | 19.01 | inhibitor, single point |
| `CNC1(c2ccccc2Cl)CCCCC1=O` (centres undefined) | CP185 | 0.2818 | inhibitor, full curve |
| `CNC1(c2ccccc2Cl)CCCCC1=O` (centres undefined) | CP297 | 16.94 | inhibitor, single point |
| `CNC1(c2ccccc2Cl)CCCCC1=O` (centres undefined) | TAB165 | 2.512 | inhibitor, full curve |
| `CNC1(c2ccccc2Cl)CCCCC1=O` (centres undefined) | CP256 | 8.912 | inhibitor, single point |
| `CNC1(c2ccccc2Cl)CCCCC1=O` (centres undefined) | CP191 | 17.78 | inhibitor, partial curve, poor fit |
| `CNC1(c2ccccc2Cl)CCCCC1=O` (centres undefined) | DIV30 | 16.94 | inhibitor, single point |
| `CNC1(c2ccccc2Cl)CCCCC1=O` (centres undefined) | PC26 | 10.69 | inhibitor, single point |
| `CNC1(c2ccccc2Cl)CCCCC1=O` (centres undefined) | TAB109 | 3.548 | inhibitor, full curve, poor fit |

Some entries from above, unchanged:

| SMILES | tested on / at | fitted potency (µM) | curve as filed |
|---|---|---|---|
| `CNC1(c2ccccc2Cl)CCCCC1=O` (centres undefined) | TAB165 | 2.512 | inhibitor, full curve |
| `CCOC(=O)C1=C(C)NC(C)=C(C(=O)OC)C1c1cccc([N+](=O)[O-])c1` (centres undefined) | PC26 | 16.94 | inhibitor, single point |
| `CCOC(=O)C1=C(C)NC(C)=C(C(=O)OC)C1c1cccc([N+](=O)[O-])c1` (centres undefined) | DIV14 | 15.1 | inhibitor, single point |
| `CNC1(c2ccccc2Cl)CCCCC1=O` (centres undefined) | PC26 | 10.69 | inhibitor, single point |